Experimental data taken from paper doi:10.1101/842476.
Results are given in words; binding and its absence hold for the method and conditions named. Binding seen in cells or lysates may run through a third protein. Some results given as binding are weak or reduced against the parent protein; the word gives no strength.

Protein sequences, listed by entry. Tags and fused reporters are not part of them. Residues count along the entry.
UniProt Q5M848: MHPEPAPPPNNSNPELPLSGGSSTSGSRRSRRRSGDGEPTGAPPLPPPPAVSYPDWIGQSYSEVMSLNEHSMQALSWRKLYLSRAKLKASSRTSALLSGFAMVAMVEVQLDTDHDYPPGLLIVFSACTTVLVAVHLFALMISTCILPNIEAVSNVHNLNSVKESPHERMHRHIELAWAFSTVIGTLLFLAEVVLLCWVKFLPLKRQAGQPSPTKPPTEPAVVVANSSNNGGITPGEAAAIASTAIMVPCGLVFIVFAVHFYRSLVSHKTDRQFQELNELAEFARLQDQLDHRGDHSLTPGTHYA
UniProt P84903, residues 23-685: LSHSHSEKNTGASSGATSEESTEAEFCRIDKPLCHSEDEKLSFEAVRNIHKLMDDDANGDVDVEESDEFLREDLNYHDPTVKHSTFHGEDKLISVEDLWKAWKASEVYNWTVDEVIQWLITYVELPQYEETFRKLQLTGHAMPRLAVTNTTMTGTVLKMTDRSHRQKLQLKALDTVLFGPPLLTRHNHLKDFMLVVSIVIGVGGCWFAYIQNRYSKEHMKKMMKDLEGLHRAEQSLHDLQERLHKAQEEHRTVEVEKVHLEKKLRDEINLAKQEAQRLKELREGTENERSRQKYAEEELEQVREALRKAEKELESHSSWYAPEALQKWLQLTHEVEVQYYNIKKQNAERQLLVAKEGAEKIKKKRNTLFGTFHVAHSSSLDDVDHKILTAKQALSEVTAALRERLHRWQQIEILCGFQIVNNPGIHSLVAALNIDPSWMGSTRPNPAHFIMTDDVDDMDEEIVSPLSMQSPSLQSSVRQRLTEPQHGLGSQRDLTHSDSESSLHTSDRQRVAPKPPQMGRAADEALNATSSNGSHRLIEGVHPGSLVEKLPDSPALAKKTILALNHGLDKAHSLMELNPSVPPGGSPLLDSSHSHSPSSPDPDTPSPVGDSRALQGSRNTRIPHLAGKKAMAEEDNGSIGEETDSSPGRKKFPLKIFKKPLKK

Target: Orai1 (rat (endogenous in DRG neurons)) (UniProt Q5M848)
Assay: proximity ligation

For STIM1 (from UniProt P84903 23-685), the binding was “binds”.
